# Assay results published in US20250228857A1, “BIOSENSOR AND USES THEREOF” (The Johns Hopkins University, priority 2022, published 2025).
# For some of these results: For at least one compound, name, drawing or mass did not settle the structure. Some entries share one result that the patent states for a list of compounds.
# Experiments:
# [1] = test system: CaMKII; settings: cited from earlier work
# [2] = biological target: T1, CaMKII (Rattus norvegicus, UniProt P15791); assay: Pacing-induced CaMKII activity in CaMKAR-expressing neonatal rat ventricular myocytes (NRVMs); format: cell-based; settings: for inhibition of pacing-induced CaMKII activity at maximal human plasma concentration: 3 Hz pacing, ruxolitinib 1.51 μM, crenolanib 478 nM, abemaciclib 243 nM, baricitinib 58 nM, silmitasertib 3.42 μM
# T1 construct: endogenous in cells; host or cells: neonatal rat ventricular myocytes (Sprague-Dawley)
# [3] = biological target: T2, CaMKII^T287D (Homo sapiens, UniProt Q13557, T287D); assay: CaMKII inhibition in 293T cells expressing CaMKAR and CaMKII^T287D (high content imaging); format: cell-based; settings: HEK293T cells, IC50 curves
# T2 construct: expressed in transfected cells; host or cells: HEK293T
# [4] = test system: type 1 diabetic mice; assay: Atrial fibrillation induction by atrial burst pacing in type 1 diabetic mice; format: in vivo, mouse; settings: 75 mg/kg i.p., 10-minute pretreatment
# From the text: (§1) (FIG. 7A) Representative type 1 diabetic mouse tracings immediately after atrial burst pacing. […] (FIG. 7B) Atrial fibrillation (AF) inducibility percentage from mice in FIG. 7A. Number of mice analyzed per group shown in each column: 9/16 vehicle treated mice had AF vs. 2/15 Rux-treated mice. (FIG. 7C) Sequential atrial fibrillation (AF) inducibility in OGT-transgenic mice. […] Number of mice analyzed per group shown in each column (Vehicle=5/5 had AF, Rux=1/5 had AF). […] Statistical comparisons were performed using 2-tailed Fischer's exact test (FIGS. 7B, 7C); two-way ANOVA with Sidak's multiple comparison's test (FIG. 7D); paired Student's T-test (FIG. 7E); *p<0.05, ****p<0.0001.
# Diabetic Mouse Model. Type-1 diabetes (T1D) was induced as previously described (57) in adult male C57BL/6J mice (The Jackson Laboratory, ME, USA) by a single intraperitoneal injection of streptozotocin (STZ)(185 mg/kg, Sigma-Aldrich) dissolved in a citrate buffer (citric acid and sodium citrate, pH 4.0) after a six hour fast. Mice were maintained on normal chow diet (NCD) (7913 irradiated NIH-31 modified 6% mouse/rat diet—15 kg, Envigo, Indianapolis, TN). Mice were considered diabetic if blood glucose level was ≥300 mg/dl via tail vein blood checked with a glucometer—OneTouch Ultra 2 (LifeScan, Zug, Switzerland). […]
# [5] = test system: Ryr2^R176Q/WT mice; assay: Electrophysiological study in CPVT mice, programmed ventricular stimulation; format: in vivo, mouse; settings: 75 mg/kg i.p., 10 minutes prior
# [6] = test system: OGT-transgenic mice; assay: Sequential atrial fibrillation inducibility in OGT-transgenic mice; format: in vivo, mouse; settings: 75 mg/kg prior to second pacing
# From the text: as §1
# 75 mg/kg dosing was chosen due to previous studies determining this dose to be equivalent to the 20-25 mg dose in humans based on plasma concentration (47-49). In vivo electrophysiology (EP) studies were performed as previously reported (57) in mice anesthetized with isoflurane (2% for induction and 1.5% for maintenance of anesthesia; Isotec 100 Series Isoflurane Vaporizer; Harvard Apparatus). AF was defined as the occurrence of rapid and fragmented atrial electrograms with irregular AV-nodal conduction and ventricular rhythm for at least 1 second. If 1 or more atrial bursts (out of 5) were an AF episode, the mouse was considered to have inducible AF. […]
# [7] = test system: Ryr2^R176Q/WT adult cardiomyocytes; assay: Abnormal Ca2+ release events in adult cardiomyocytes isolated from CPVT mice; format: cell-based, mouse; settings: 2 μM, 10 minutes pre-incubation
# [8] = test system: RyR2^S404R/WT iPSC-CMs; assay: Ca2+ imaging of CPVT patient-derived iPSC-cardiomyocytes (abnormal Ca2+ release events, paced transients); format: cell-based, human
# [9] = test system: WT and RyR2^R176Q/WT mice; assay: ECG heart rate and electrophysiologic parameters in WT and RyR2^R176Q/WT mice; settings: 75 mg/kg i.p., then ISO or EPI
structure (smiles),measurement,setting,value
"CN([C@@H](Cc1ccc(OS(=O)(=O)c2cccc3cnccc23)cc1)C(=O)N1CCN(c2ccccc2)CC1)S(=O)(=O)c1cccc2cnccc12 [KN-62, 1-[N,O-bis(5-isoquinolinesulfonyl)-N-methyl-L-tyrosyl]-4-phenylpiperazine]",IC50,[1],> 2 µM
CCN1CCN(Cc2ccc(Nc3ncc(F)c(-c4cc(F)c5nc(C)n(C(C)C)c5c4)n3)nc2)CC1 [abemaciclib],inhibition of pacing-induced CaMKII activity at maximal human plasma concentration,[2],sustained inhibition
CCS(=O)(=O)N1CC(CC#N)(n2cc(-c3ncnc4[nH]ccc34)cn2)C1 [baricitinib],potency compared with AS100397,[3],more potent than AS100397
same,inhibition of pacing-induced CaMKII activity at maximal human plasma concentration,[2],"but not baricitinib, sustained inhibition"
N#CC[C@H](C1CCCC1)n1cc(-c2ncnc3[nH]ccc23)cn1 [ruxolitinib],pacing-induced AF,[4],abolished
same,duration of induced arrhythmias,[5],significantly reduced
same,frequency of induced ventricular arrhythmias,[5],substantial reduction
same,pacing-induced AF,[6],prevented
same,time to return pre-activated CaMKII activity to baseline,[2]; added under continuous pacing,≤ 30 s
same,frequency of abnormal Ca2+ release events,[7],significantly reduced
same,abnormal Ca2+ release events (aCREs),"[8]; 2 μM pre-incubation, after 1 Hz pacing, vs vehicle",effectively suppressed
same,Ca2+ transient duration,"[8]; 2 μM, 1 Hz pacing",did not reveal any significant effect
same,peak Ca2+ amplitude,"[8]; 2 μM, 1 Hz pacing",did not reveal any significant effect
same,upstroke velocity,"[8]; 2 μM, 1 Hz pacing",did not reveal any significant effect
same,downstroke velocity of paced Ca2+ transients,"[8]; 2 μM, 1 Hz pacing, vs wild-type values",normalized
same,adrenergic-induced heart rate increase,[9],suppressed
